The supplement of paper PMC3334620
Over roughly 33,000 sequences, “E-score (-0.5 to 0.5)” has its median near -8e-05; the highest 2% begin near 0.23. The list shows a part of the results.

Target: T1, Nrg2 (UniProt P38082)
T1 sequence: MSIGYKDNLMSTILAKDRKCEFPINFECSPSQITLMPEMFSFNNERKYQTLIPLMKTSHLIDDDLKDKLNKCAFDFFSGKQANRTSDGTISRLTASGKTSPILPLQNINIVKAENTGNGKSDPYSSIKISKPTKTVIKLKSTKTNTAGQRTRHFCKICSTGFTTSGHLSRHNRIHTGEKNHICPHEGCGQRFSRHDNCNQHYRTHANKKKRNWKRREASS
Assay: PBM E-score (8-mer binding enrichment) (E-score (-0.5 to 0.5)); higher = stronger / more preferred TF binding
Settings: protein concentration: 100 nM; construct: GST-full length
Summary of the method: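 Masliner-normalised scans of fluorescent anti-GST signal were the basis for scoring. That signal came from GST-tagged yeast transcription factors applied at about 100-200 nM to double-stranded universal all-10-mer Agilent arrays on fresh or once-stripped slides. Each ungapped eight-base word, pooled with its reverse complement, received an E-score from the Universal PBM Analysis Suite.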

Sequence | PBM E-score
ACTTGTAA | -0.0121
CGCGAGGA | 0.0651
AATATGTC | 0.157
GCTGGTCC | 0.0876
AAGCGGGC | -0.268
ATACCTCG | 0.0803
CCTATCGC | -0.134
ATGGCGCC | 0.0356
AGACGGCA | -0.0306
TATGTCAA | 0.14
CCGATCCG | -0.139
AATCGCGA | 0.185
CCATAAGC | -0.131
AAGTCGCA | 0.0959
GGCAAGGA | 0.00691
CAGCACTG | -0.0889
AAGAGAGC | -0.127
CCGGTAAA | -0.0724
ACTCGACC | -0.185
ATAGATAA | 0.121
CACTGTAG | 0.185
CCACAGGC | -0.246
GCCACAAC | 0.0257
AGTACCGA | -0.153
AGAGCGCC | 0.0188

Seven entries from above, in CSV form:
Sequence,PBM E-score
AATATGTC,0.157
GCTGGTCC,0.0876
AAGCGGGC,-0.268
ATACCTCG,0.0803
CCTATCGC,-0.134
ATGGCGCC,0.0356
AGACGGCA,-0.0306

(listing goes on)

Sequence | PBM E-score
GATTGACC | -0.119
ACGAGCCA | -0.0675
AAGCCCGC | -0.0421
GACTGATC | -0.0428
AGCCATCG | -0.00776
AGTCTAAT | -0.0606
AGGGTCTG | 0.216
GATTGACA | 0.186
CCAAAGAA | -0.029
AGACATTC | -0.0988
CCTGTGCA | -0.0366
CAGACCAG | -0.0557
ATAACTTA | 0.0524
GAGTTGTA | 0.0221
CCCCGCCG | 0.011
CGACTGAG | -0.0854
AGTGGAAT | 0.02
CATTAACA | -0.0603
AGCTGAAT | 0.112
CATCAGTA | 0.0579
CCTAACGC | 0.0164
CACTGTTA | -0.0501
CGTTCCTC | -0.0798
AACCGAGG | -0.239
CATTGTAA | -0.00214

Sequence | PBM E-score
ACCGCTGC | -0.123
AACCGCAG | -0.153
ACGACTCC | -0.0677
CATCATGA | 0.118
ATGATTGA | 0.086
ATAACCTG | -0.0869
ACAGCTGC | -0.0727
ACCACACA | 0.148
GGAGGGCC | -0.112
CTGACCTA | 0.0551
ATATGGTC | 0.139
CCACGCAC | 0.0752
CTCGCTTA | 0.132
ATCTGCCA | -0.0835
AAATTGTT | 0.0684
ACTCCCAT | -0.0967
GGCCTCCC | -0.154
AGAATTCA | 0.0705
CTTCTGGA | -0.0666
ACTGCAGT | 0.00777
AGGGCCAG | -0.0582
TGCTTCCA | -0.307
ACACATTG | 0.105
CGCTGTAA | 0.0109
ACGAACAT | 0.129

Some of the entries above in another layout.
Sequence,PBM E-score
ATATGGTC,0.139
CCACGCAC,0.0752
CTCGCTTA,0.132
ATCTGCCA,-0.0835

Going on with the list:

Sequence | PBM E-score
ATTTTCGG | 0.152
TTATACAA | 0.0467
ATTGACTG | 0.016
CATCTCCA | 0.034
CCGGGACG | -0.202
ATAAGGAA | -0.15
GGGATTAA | 0.139
AGAAATCT | -0.0175
GACATGCC | -0.115
GTCATCTA | 0.0314
GTGTTGCA | -0.0333
AGCCCTAC | -0.0905
CTATTAAC | 0.0717
CAATAGCG | 0.0188
TGGGAGAA | -0.271
ACATCCGC | -0.00443
ATCAGCCG | -0.0958
ACTCCCAG | -0.0427
ACAGGAGA | -0.0632
CATCCGAC | 0.0774
ACAGGATG | 0.0354
CTCCGTGC | -0.168
ACAGGGAC | 0.339
AGATAGAA | -0.0277
ATCAACAG | 0.141

Sequence | PBM E-score
CTTATCGA | 0.0597
TAAACCCA | 0.0992
CATGAGGC | -0.109
GTCTATAA | 0.15
ACACTATA | 0.181
AGCTCCAT | -0.0637
GGTATATA | 0.169
AAGATAGG | -0.0249
AAGGCCCG | -0.333
ATTGGGGC | 0.155
AGCATATG | -0.178
ACAAATCG | 0.106
GTGAGCAA | -0.0485
GCGATGCC | -0.136
CCCCTCAC | 0.113
GAGTCAGC | -0.151
CCTAGGAC | -0.19
GGAACTTA | 0.00245
AGACATGA | 0.0439
GCTTCTGA | 0.0375
GCTACGCA | -0.108
ATTCACAC | 0.0789
AAGAGCGT | 0.0682
ACAAAGGC | -0.123
AATGTGCG | 0.187

2 consecutive records out of the list so far, for reference:
Sequence | PBM E-score
ATTCACAC | 0.0789
AAGAGCGT | 0.0682

More records:

Sequence | PBM E-score
AGAACATC | 0.0252
CTAACTTC | -0.0311
AGCTTCTG | 0.00485
GGCACTGA | -0.0586
AACGTGCC | -0.0639
GCTTCAAA | -0.0192
GGACCTCA | -0.0157
ATGAGGGC | -0.0863
CGGTAAGC | -0.126
AGCTTAAA | -0.0453
AACCTATG | -0.101
GTCGCGAC | 0.37
CCGCAAGC | -0.121
CACGTGCA | 0.0587
CTTAGCAA | 0.0486
GAAATTCA | 0.132
ACTGATTC | 0.054
GACATAAC | 0.0528
AGATTTTG | 0.0708
CACAGAGC | -0.0147
AGTGTAGG | -0.00233
TGCGGACA | 0.0396
GGGCTACA | -0.112
ACTCAAGT | -0.101
GCGCTTAC | -0.147

Sequence | PBM E-score
AACAACAT | -0.0432
CACCCGCA | -0.00365
CCTTAATC | 0.0766
CGCTGCTC | -0.0853
AAATTCGC | 0.234
CAATACAG | 0.125
ATCGCGTG | 0.117
CCGACAGG | 0.0606
CTACAATC | 0.104
CGGATATA | 0.128
CTTTGGAA | -0.152
CAACGCCC | -0.0735
CGGCTTGA | -0.0482
TAAACAAA | 0.0611
CCAGCACC | -0.141
CCTTACCA | -0.137
ACCACCCC | -0.2
AATGTTAT | 0.0988
ACTTAAAG | -0.164
CTGTTAAC | 0.221
CACCTCTA | -0.15
CGATCAGC | -0.0819
